Laboratory results from the supplement of paper PMC10849652.
The list shows a part of the results.

By UniProt entry, the sequences of proteins in these tests, tags left out. Where a name states a change or a piece, a line headed by the entry shows the natural chain unless it says otherwise.
UniProt P60981: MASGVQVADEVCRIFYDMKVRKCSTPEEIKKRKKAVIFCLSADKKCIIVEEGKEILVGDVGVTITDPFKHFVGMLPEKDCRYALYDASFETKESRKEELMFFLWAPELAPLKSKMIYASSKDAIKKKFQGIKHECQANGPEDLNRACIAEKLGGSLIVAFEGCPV
UniProt Q9BZQ6: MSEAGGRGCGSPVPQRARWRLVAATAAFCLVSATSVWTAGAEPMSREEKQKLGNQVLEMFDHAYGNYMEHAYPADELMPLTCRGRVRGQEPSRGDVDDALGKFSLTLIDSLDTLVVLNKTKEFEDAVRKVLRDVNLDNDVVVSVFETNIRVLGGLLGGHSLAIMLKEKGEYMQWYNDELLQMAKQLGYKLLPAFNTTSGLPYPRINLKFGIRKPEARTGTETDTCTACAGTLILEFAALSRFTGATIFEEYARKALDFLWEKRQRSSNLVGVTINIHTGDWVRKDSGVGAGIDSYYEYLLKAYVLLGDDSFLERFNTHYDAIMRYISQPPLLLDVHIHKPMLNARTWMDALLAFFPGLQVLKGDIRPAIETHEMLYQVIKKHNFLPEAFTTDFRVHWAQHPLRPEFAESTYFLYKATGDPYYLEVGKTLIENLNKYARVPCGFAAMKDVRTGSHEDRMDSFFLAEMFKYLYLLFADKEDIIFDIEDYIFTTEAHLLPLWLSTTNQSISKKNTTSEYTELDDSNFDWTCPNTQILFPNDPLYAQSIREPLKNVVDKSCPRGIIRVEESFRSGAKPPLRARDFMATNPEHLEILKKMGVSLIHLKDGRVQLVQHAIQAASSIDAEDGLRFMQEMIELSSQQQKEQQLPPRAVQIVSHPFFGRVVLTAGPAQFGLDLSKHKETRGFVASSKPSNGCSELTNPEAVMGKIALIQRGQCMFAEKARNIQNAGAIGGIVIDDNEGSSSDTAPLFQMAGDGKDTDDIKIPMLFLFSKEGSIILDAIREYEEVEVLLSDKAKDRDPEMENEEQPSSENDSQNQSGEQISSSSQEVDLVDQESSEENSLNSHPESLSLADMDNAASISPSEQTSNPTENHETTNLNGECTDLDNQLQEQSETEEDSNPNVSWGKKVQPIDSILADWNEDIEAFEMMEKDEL
UniProt Q9UKB3: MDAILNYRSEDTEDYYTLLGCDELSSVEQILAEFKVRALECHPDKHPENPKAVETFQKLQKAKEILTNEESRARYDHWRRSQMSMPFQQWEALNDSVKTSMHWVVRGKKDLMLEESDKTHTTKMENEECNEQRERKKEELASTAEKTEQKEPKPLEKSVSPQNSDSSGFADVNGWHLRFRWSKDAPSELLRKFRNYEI
UniProt P42892: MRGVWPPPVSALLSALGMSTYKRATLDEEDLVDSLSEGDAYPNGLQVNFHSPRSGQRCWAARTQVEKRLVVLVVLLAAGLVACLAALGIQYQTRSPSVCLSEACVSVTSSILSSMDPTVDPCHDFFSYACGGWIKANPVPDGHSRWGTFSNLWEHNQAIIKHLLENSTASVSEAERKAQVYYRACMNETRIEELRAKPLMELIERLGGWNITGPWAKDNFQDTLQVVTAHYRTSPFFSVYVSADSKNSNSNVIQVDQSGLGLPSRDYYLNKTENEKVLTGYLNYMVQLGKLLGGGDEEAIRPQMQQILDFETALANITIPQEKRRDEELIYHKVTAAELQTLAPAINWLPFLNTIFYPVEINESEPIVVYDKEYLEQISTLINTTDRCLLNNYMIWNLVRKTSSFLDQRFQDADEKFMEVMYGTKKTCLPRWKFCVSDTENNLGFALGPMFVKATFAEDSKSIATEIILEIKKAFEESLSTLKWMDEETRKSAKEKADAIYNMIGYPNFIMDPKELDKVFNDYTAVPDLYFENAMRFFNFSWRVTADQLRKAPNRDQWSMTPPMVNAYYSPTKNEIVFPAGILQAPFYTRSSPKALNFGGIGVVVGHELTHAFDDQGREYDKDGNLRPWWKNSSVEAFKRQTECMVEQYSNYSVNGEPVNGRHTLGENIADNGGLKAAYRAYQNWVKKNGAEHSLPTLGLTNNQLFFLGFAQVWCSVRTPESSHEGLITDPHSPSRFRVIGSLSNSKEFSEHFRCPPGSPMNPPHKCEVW
UniProt Q14126: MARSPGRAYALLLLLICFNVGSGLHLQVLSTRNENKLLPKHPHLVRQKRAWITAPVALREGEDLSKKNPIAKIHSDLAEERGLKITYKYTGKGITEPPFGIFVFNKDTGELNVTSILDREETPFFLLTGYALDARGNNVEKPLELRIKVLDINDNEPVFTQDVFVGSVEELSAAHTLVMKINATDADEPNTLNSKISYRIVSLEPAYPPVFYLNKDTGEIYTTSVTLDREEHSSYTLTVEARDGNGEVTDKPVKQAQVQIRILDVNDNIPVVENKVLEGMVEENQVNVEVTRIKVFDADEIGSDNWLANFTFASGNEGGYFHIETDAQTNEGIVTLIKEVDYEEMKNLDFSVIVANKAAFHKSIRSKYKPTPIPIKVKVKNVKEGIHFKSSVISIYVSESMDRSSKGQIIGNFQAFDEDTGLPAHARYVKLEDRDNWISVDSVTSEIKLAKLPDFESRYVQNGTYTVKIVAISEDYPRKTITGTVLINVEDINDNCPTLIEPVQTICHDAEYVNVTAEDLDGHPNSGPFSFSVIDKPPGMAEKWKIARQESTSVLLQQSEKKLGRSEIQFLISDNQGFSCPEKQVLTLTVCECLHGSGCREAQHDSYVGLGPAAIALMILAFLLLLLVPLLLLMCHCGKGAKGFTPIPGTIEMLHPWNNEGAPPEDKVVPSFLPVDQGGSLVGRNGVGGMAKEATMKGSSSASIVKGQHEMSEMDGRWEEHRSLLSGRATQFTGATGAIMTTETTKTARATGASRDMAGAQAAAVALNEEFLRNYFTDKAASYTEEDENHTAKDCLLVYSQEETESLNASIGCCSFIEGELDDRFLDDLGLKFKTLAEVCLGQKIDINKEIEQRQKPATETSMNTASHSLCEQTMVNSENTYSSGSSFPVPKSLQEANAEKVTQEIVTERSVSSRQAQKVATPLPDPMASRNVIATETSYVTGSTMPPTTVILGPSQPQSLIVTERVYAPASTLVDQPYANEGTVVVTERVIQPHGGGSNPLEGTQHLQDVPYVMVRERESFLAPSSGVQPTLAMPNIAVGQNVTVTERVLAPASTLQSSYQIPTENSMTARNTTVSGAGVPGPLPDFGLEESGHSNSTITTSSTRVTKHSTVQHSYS
UniProt Q02487, whole entry, looked up: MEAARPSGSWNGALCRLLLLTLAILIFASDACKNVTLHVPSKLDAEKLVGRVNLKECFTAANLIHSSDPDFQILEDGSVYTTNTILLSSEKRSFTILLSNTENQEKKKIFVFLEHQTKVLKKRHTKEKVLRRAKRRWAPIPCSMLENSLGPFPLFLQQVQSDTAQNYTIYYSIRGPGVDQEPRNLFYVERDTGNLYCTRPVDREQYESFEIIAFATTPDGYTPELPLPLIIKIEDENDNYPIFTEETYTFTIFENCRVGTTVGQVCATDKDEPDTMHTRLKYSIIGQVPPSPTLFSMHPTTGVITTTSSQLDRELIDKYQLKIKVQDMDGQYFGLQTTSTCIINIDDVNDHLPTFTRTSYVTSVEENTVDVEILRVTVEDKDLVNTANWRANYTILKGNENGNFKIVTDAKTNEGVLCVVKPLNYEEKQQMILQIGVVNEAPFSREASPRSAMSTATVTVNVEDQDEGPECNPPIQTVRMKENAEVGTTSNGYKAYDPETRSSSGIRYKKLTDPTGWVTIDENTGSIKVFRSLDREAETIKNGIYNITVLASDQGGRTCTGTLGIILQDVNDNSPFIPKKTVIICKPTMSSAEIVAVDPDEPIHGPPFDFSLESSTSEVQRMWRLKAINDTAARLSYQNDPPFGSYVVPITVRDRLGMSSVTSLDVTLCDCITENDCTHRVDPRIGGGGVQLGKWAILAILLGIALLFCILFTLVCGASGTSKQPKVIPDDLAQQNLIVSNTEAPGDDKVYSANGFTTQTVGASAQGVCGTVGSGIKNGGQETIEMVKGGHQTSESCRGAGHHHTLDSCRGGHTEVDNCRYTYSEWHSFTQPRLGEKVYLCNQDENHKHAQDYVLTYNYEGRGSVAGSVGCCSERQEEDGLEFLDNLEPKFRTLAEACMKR
UniProt Q9H3H5: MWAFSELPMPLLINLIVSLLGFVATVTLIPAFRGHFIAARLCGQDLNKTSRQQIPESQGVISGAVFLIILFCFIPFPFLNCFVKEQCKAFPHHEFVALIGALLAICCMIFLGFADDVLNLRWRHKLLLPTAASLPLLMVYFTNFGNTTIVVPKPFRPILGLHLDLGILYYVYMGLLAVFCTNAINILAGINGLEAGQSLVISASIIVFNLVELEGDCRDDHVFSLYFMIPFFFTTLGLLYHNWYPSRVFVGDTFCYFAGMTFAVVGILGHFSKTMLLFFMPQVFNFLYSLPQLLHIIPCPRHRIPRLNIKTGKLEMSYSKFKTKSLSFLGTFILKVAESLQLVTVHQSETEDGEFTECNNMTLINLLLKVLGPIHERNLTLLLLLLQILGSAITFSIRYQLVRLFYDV
UniProt Q96EY1: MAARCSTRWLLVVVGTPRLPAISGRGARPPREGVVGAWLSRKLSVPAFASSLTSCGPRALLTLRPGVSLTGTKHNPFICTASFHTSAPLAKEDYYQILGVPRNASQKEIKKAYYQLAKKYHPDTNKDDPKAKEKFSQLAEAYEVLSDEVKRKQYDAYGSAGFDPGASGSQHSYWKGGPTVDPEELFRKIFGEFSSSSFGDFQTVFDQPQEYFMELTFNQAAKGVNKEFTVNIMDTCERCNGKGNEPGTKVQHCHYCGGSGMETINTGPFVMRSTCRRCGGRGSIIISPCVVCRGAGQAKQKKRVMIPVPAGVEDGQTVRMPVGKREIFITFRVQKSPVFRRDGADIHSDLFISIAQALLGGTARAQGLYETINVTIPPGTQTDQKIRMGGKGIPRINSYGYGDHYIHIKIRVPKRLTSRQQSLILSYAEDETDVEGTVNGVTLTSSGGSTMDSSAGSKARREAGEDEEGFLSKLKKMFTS
UniProt Q8WXX5: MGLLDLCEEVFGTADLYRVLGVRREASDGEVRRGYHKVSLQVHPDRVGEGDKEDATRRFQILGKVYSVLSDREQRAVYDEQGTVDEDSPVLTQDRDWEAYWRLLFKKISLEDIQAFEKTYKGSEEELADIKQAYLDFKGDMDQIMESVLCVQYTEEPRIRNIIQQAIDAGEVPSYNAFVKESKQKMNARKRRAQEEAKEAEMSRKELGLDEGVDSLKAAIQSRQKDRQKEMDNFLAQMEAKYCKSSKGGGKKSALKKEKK
UniProt O75521: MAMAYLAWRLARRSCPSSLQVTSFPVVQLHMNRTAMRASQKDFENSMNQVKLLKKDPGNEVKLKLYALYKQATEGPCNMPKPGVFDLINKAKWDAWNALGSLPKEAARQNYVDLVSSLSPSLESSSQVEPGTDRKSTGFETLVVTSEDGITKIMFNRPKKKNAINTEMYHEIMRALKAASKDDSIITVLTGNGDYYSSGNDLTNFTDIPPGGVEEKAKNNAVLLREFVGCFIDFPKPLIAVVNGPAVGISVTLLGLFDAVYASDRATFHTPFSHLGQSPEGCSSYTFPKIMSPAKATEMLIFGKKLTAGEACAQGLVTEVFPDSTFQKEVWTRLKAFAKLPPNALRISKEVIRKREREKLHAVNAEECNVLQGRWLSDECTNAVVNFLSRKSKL
UniProt Q9NVH1: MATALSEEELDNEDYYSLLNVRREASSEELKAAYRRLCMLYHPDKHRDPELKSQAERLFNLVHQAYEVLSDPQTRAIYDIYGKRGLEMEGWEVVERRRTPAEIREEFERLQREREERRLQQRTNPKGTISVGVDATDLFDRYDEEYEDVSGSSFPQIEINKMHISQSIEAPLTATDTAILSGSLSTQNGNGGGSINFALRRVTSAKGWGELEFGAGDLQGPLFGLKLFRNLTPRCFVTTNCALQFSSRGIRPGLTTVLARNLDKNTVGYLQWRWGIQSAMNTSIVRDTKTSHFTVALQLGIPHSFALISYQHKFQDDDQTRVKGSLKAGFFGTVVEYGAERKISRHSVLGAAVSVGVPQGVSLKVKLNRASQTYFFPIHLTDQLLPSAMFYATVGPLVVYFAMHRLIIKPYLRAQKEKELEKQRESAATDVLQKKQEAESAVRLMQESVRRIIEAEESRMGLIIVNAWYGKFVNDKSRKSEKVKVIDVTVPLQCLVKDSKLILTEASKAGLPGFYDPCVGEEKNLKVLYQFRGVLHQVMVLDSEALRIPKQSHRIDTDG
UniProt P42126: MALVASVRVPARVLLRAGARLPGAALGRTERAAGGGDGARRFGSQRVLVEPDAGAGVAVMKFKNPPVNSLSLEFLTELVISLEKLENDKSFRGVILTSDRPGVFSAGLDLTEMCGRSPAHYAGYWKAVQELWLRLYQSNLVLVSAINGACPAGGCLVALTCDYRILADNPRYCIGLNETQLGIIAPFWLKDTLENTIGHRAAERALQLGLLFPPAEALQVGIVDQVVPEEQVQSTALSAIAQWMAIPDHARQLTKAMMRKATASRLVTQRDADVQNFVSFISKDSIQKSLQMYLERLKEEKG

Key:
Assay in all cases: log2 fold change, soluble protein after heating vs DMSO (PISA); higher = thermal stabilisation; K562 cells, 10 uM, 30 min; active = over 0.2 and 3.5 SD of the protein, either way, in both replicates (recomputed)
saracatinib = compound: CN1CCN(CCOc2cc(OC3CCOCC3)c3c(Nc4c(Cl)ccc5c4OCO5)ncnc3c2)CC1 [saracatinib]
Method in brief: (§1)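 K562 cells at 2×10^6 cells/mL were treated for 30 min with 10 μM compound, and aliquots were heated for 3 min over 48°C-58°C before pooling. Extraction used PBS with 0.5% NP-40 at 4°C, and soluble protein was the supernatant after 21,000xg for 90 min, measured by TMTpro 16plex LC-MS/MS with channel sums equalised. Thermal stability values, relative to control samples and from duplicates, are log2 fold changes.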

sotrastaurin = compound: CN1CCN(c2nc(C3=C(c4c[nH]c5ccccc45)C(=O)NC3=O)c3ccccc3n2)CC1 [sotrastaurin]
Method in brief: as §1

alvocidib = compound: CN1CC[C@H](c2c(O)cc(O)c3c(=O)cc(-c4ccccc4Cl)oc23)[C@H](O)C1 [alvocidib]
Method in brief: as §1

Tubastatin A = compound: CN1CCc2c(c3ccccc3n2Cc2ccc(C(=O)NO)cc2)C1 [Tubastatin A]
Method in brief: as §1

[1] = compound: CNC(=O)C1=CC=CC=C1NC2=NC(=NC=C2Cl)NC3=C(C=C(C=C3)N4CCOCC4)OC
Method in brief: as §1

defactinib = compound: CNC(=O)c1ccc(Nc2ncc(C(F)(F)F)c(NCc3nccnc3N(C)S(C)(=O)=O)n2)cc1 [defactinib]
Method in brief: as §1

rucaparib = compound: CNCc1ccc(-c2[nH]c3cc(F)cc4c3c2CCNC4=O)cc1 [rucaparib]
Method in brief: as §1

[2] = compound: CNc1nc(-c2ccc3c(N)n[nH]c3c2)cc(N2C[C@@H](C(=O)NC3CCCCC3)CC[C@H]2C)n1
Method in brief: as §1

encorafenib = compound: COC(=O)N[C@@H](C)CNc1nccc(-c2cn(C(C)C)nc2-c2cc(Cl)cc(NS(C)(=O)=O)c2F)n1 [encorafenib]
Method in brief: as §1

[3] = compound: COC(=O)[C@H](CCSC)NC(=O)C1=C(C=C(C=C1)NC[C@H](CS)N)C2=CC=CC=C2
Method in brief: as §1

[4] = compound: COC1=CC=C(C=C1)CN2C=CC3=C2C=C(C=C3)C(=O)NO
Method in brief: as §1

filanesib = compound: CON(C)C(=O)N1N=C(c2cc(F)ccc2F)S[C@@]1(CCCN)c1ccccc1 [filanesib]
Method in brief: as §1

zotarolimus = compound: CO[C@H]1C[C@@H]2CC[C@@H](C)[C@@](O)(O2)C(=O)C(=O)N2CCCC[C@H]2C(=O)O[C@H]([C@H](C)C[C@@H]2CC[C@H](n3cnnn3)[C@H](OC)C2)CC(=O)[C@H](C)/C=C(\C)[C@@H](O)[C@@H](OC)C(=O)[C@H](C)C[C@H](C)/C=C/C=C/C=C/1C [zotarolimus]
Method in brief: as §1

idasanutlin = compound: COc1cc(C(=O)O)ccc1NC(=O)[C@@H]1N[C@@H](CC(C)(C)C)[C@](C#N)(c2ccc(Cl)cc2F)[C@H]1c1cccc(Cl)c1F [idasanutlin]
Method in brief: as §1

alisertib = compound: COc1cc(Nc2ncc3c(n2)-c2ccc(Cl)cc2C(c2c(F)cccc2OC)=NC3)ccc1C(=O)O [alisertib]
Method in brief: as §1

[5] = compound: COc1cc2nc(-c3cc(F)ccc3O)nc(N[C@@H]3CNC[C@H]3C(C)(C)O)c2cc1OC
Method in brief: as §1

gefitinib = compound: COc1cc2ncnc(Nc3ccc(F)c(Cl)c3)c2cc1OCCCN1CCOCC1 [gefitinib]
Method in brief: as §1

[6] = compound: COc1cccc2cc(-c3nc([C@H]4CC[C@H](C(=O)O)CC4)n4ncnc(N)c34)[nH]c12
Method in brief: as §1

lapatinib = compound: CS(=O)(=O)CCNCc1ccc(-c2ccc3ncnc(Nc4ccc(OCc5cccc(F)c5)c(Cl)c4)c3c2)o1 [lapatinib]
Method in brief: as §1

pictilisib = compound: CS(=O)(=O)N1CCN(Cc2cc3nc(-c4cccc5[nH]ncc45)nc(N4CCOCC4)c3s2)CC1 [pictilisib]
Method in brief: as §1

Measured: log2 fold change

DOCK9 isoform 4 (UniProt Q9BZ29)
inactive: saracatinib -0.004 | sotrastaurin -0.141 | alvocidib 0.001 | Tubastatin A -0.01 | [1] 0.018 | defactinib -0.045 | rucaparib -0.009 | [2] -0.037 | encorafenib -0.001 | [3] -0.025 | [4] -0.01 | filanesib -0.106 | zotarolimus -0.032 | idasanutlin -0.016 | alisertib -0.075 | [5] 0.121 | gefitinib 0.008 | [6] 0.034 | lapatinib -0.015 | pictilisib 0.061

DR1 (UniProt Q01658)
inactive: saracatinib 0.003 | sotrastaurin -0.013 | alvocidib 0.028 | Tubastatin A -0.027 | [1] -0.038 | defactinib 0.006 | rucaparib -0.134 | [2] -0.077 | encorafenib 0.008 | [3] 0.035 | [4] 0.119 | filanesib -0.011 | zotarolimus -0.007 | idasanutlin 0.019 | alisertib -0.002 | [5] -0.002 | gefitinib -0.021 | [6] -0.022 | lapatinib -0.048 | pictilisib 0.004

DSTN (UniProt P60981)
inactive: saracatinib -0.008 | sotrastaurin -0.035 | alvocidib -0.027 | Tubastatin A -0.053 | [1] 0.025 | defactinib -0.005 | rucaparib -0.022 | [2] -0.046 | encorafenib -0.005 | [3] 0.029 | [4] -0.006 | filanesib -0.037 | zotarolimus -0.011 | idasanutlin -0.018 | alisertib 0.053 | [5] 0.015 | gefitinib -0.002 | [6] -0.057 | lapatinib -0.016 | pictilisib 0.042

EDEM3 (UniProt Q9BZQ6)
inactive: saracatinib -0.077 | sotrastaurin 0.005 | alvocidib 0.043 | Tubastatin A 0.061 | [1] -0.005 | defactinib 0.032 | rucaparib 0.135 | [2] -0.084 | encorafenib -0.047 | [3] -0.011 | [4] -0.031 | filanesib 0.067 | zotarolimus 0.018 | idasanutlin 0.018 | alisertib -0.016 | [5] 0.02 | gefitinib -0.041 | [6] -0.026 | lapatinib 0.053 | pictilisib -0.036

DNAJC12 (UniProt Q9UKB3)
inactive: saracatinib 0.045 | sotrastaurin 0.081 | alvocidib -0.017 | Tubastatin A 0.018 | [1] -0.021 | defactinib -0.008 | rucaparib -0.017 | [2] -0.046 | encorafenib 0.023 | [3] -0.011 | [4] -0.014 | filanesib 0.035 | zotarolimus -0.025 | idasanutlin -0.029 | alisertib -0.027 | [5] 0.085 | gefitinib 0.022 | [6] -0.008 | lapatinib -0.015 | pictilisib 0.055

ECE1 (UniProt P42892)
inactive: saracatinib 0.008 | sotrastaurin -0.081 | alvocidib -0.042 | Tubastatin A -0.04 | [1] -0.065 | defactinib -0.062 | rucaparib -0.133 | [2] -0.005 | encorafenib 0.21 | [3] 0.001 | [4] 0.062 | filanesib -0.045 | zotarolimus -0.01 | idasanutlin 0.029 | alisertib 0.006 | [5] -0.092 | gefitinib -0.098 | [6] -0.007 | lapatinib 0.019 | pictilisib -0.065

DSG2 (UniProt Q14126)
inactive: saracatinib 0.051 | sotrastaurin -0.018 | alvocidib -0.002 | Tubastatin A 0.03 | [1] -0.008 | defactinib -0.076 | rucaparib -0.031 | [2] -0.055 | encorafenib -0.01 | [3] 0.036 | [4] -0.02 | filanesib 0.056 | zotarolimus -0.06 | idasanutlin 0.094 | alisertib -0.052 | [5] -0.1 | gefitinib 0.003 | [6] -0.014 | lapatinib 0.032 | pictilisib 0.046

ECSIT (UniProt Q9BQ95)
inactive: saracatinib 0.054 | sotrastaurin 0.055 | alvocidib 0 | Tubastatin A -0.006 | [1] -0.051 | defactinib -0.024 | rucaparib -0.006 | [2] -0.045 | encorafenib -0.001 | [3] 0.045 | [4] 0.018 | filanesib -0.007 | zotarolimus -0.061 | idasanutlin 0.01 | alisertib -0.016 | [5] 0.029 | gefitinib 0.007 | [6] 0.075 | lapatinib -0.015 | pictilisib -0.035

DSC2 (UniProt Q02487)
inactive: saracatinib -0.043 | sotrastaurin 0.109 | alvocidib 0.13 | Tubastatin A 0.066 | [1] 0.012 | defactinib -0.058 | rucaparib 0.12 | [2] -0.197 | encorafenib -0.012 | [3] 0.071 | [4] -0.051 | filanesib 0.073 | zotarolimus -0.083 | idasanutlin 0.134 | alisertib 0.029 | [5] 0.142 | gefitinib -0.016 | [6] -0.005 | lapatinib 0.05 | pictilisib -0.031

DOCK11 (UniProt Q5JSL3)
inactive: saracatinib -0.058 | sotrastaurin -0.105 | alvocidib 0 | Tubastatin A 0.019 | [1] 0.049 | defactinib -0.027 | rucaparib 0.074 | [2] 0.048 | encorafenib 0.083 | [3] -0.025 | [4] -0.016 | filanesib -0.004 | zotarolimus -0.018 | idasanutlin -0.071 | alisertib -0.032 | [5] 0.103 | gefitinib -0.012 | [6] 0 | lapatinib 0 | pictilisib 0.062

DPAGT1 (UniProt Q9H3H5)
inactive: saracatinib -0.121 | sotrastaurin -0.008 | alvocidib -0.076 | Tubastatin A -0.114 | [1] 0.07 | defactinib -0.036 | rucaparib -0.026 | [2] 0.033 | encorafenib -0.038 | [3] 0.022 | [4] 0.045 | filanesib -0.047 | zotarolimus 0.04 | idasanutlin -0.045 | alisertib 0.019 | [5] -0.006 | gefitinib 0.02 | [6] 0.047 | lapatinib 0.027 | pictilisib -0.026

Reprinted from the listing (two entries):
DOCK11 (UniProt Q5JSL3)
inactive: saracatinib -0.058 | sotrastaurin -0.105 | alvocidib 0 | Tubastatin A 0.019 | [1] 0.049 | defactinib -0.027 | rucaparib 0.074 | [2] 0.048 | encorafenib 0.083 | [3] -0.025 | [4] -0.016 | filanesib -0.004 | zotarolimus -0.018 | idasanutlin -0.071 | alisertib -0.032 | [5] 0.103 | gefitinib -0.012 | [6] 0 | lapatinib 0 | pictilisib 0.062

DPAGT1 (UniProt Q9H3H5)
inactive: saracatinib -0.121 | sotrastaurin -0.008 | alvocidib -0.076 | Tubastatin A -0.114 | [1] 0.07 | defactinib -0.036 | rucaparib -0.026 | [2] 0.033 | encorafenib -0.038 | [3] 0.022 | [4] 0.045 | filanesib -0.047 | zotarolimus 0.04 | idasanutlin -0.045 | alisertib 0.019 | [5] -0.006 | gefitinib 0.02 | [6] 0.047 | lapatinib 0.027 | pictilisib -0.026

Later entries

DNAJA3 (UniProt Q96EY1)
inactive: saracatinib -0.079 | sotrastaurin -0.027 | alvocidib 0.028 | Tubastatin A 0.018 | [1] -0.058 | defactinib -0.004 | rucaparib 0.317 | [2] 0.023 | encorafenib 0.04 | [3] -0.044 | [4] 0.015 | filanesib -0.018 | zotarolimus 0.05 | idasanutlin 0.058 | alisertib -0.018 | [5] -0.008 | gefitinib -0.046 | [6] 0.01 | lapatinib 0.003 | pictilisib -0.006

DNAJC9 (UniProt Q8WXX5)
inactive: saracatinib -0.033 | sotrastaurin -0.018 | alvocidib -0.042 | Tubastatin A 0 | [1] 0 | defactinib -0.061 | rucaparib -0.03 | [2] -0.046 | encorafenib 0.011 | [3] 0.014 | [4] 0.001 | filanesib -0.029 | zotarolimus 0 | idasanutlin -0.014 | alisertib -0.031 | [5] 0.049 | gefitinib 0.01 | [6] 0 | lapatinib -0.047 | pictilisib 0.014

ECI2 (UniProt O75521)
inactive: saracatinib 0.002 | sotrastaurin 0.039 | alvocidib -0.005 | Tubastatin A -0.005 | [1] -0.011 | defactinib -0.039 | rucaparib -0.01 | [2] -0.031 | encorafenib 0.019 | [3] -0.01 | [4] -0.021 | filanesib -0.066 | zotarolimus 0.007 | idasanutlin -0.072 | alisertib -0.016 | [5] 0.038 | gefitinib 0.006 | [6] 0.031 | lapatinib -0.025 | pictilisib 0.07

DNAJC11 (UniProt Q9NVH1)
inactive: saracatinib -0.034 | sotrastaurin 0.027 | alvocidib 0.002 | Tubastatin A -0.028 | [1] 0.02 | defactinib -0.036 | rucaparib -0.017 | [2] -0.017 | encorafenib -0.017 | [3] 0.019 | [4] -0.024 | filanesib -0.046 | zotarolimus 0.003 | idasanutlin -0.047 | alisertib -0.068 | [5] 0.034 | gefitinib 0.029 | [6] 0.013 | lapatinib -0.018 | pictilisib -0.053

ECI1 (UniProt P42126)
inactive: saracatinib 0.008 | sotrastaurin 0.023 | alvocidib 0.008 | Tubastatin A -0.036 | [1] -0.021 | defactinib -0.008 | rucaparib 0.009 | [2] -0.05 | encorafenib -0.01 | [3] -0.074 | [4] -0.094 | filanesib -0.024 | zotarolimus 0.019 | idasanutlin -0.028 | alisertib 0.001 | [5] 0.014 | gefitinib -0.006 | [6] 0.061 | lapatinib -0.031 | pictilisib 0.032
